Laboratory results taken from the supplement of paper PMC10849652.
This is one part of the list.

Amino acid sequences for entries named in this document (tags omitted). A change or cut given only in a name is not applied to a line headed by its entry.
UniProt Q5H9S7: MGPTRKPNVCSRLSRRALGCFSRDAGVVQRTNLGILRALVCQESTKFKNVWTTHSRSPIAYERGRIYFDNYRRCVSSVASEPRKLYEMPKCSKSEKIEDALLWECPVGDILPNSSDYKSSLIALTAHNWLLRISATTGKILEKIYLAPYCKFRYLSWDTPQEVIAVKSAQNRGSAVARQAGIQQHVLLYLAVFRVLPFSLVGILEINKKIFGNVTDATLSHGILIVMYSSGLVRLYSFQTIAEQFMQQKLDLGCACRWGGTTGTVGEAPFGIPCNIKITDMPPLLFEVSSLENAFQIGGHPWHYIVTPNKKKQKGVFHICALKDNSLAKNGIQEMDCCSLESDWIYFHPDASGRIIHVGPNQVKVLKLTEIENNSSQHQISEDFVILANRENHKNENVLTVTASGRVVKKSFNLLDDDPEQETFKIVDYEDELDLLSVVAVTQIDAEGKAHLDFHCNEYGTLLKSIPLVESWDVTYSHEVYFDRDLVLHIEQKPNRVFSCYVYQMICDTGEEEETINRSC
UniProt Q15038: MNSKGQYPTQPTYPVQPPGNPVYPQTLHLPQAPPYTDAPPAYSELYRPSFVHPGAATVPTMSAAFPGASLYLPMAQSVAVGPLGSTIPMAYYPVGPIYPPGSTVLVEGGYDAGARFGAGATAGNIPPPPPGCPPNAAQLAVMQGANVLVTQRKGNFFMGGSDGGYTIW
UniProt Q08345: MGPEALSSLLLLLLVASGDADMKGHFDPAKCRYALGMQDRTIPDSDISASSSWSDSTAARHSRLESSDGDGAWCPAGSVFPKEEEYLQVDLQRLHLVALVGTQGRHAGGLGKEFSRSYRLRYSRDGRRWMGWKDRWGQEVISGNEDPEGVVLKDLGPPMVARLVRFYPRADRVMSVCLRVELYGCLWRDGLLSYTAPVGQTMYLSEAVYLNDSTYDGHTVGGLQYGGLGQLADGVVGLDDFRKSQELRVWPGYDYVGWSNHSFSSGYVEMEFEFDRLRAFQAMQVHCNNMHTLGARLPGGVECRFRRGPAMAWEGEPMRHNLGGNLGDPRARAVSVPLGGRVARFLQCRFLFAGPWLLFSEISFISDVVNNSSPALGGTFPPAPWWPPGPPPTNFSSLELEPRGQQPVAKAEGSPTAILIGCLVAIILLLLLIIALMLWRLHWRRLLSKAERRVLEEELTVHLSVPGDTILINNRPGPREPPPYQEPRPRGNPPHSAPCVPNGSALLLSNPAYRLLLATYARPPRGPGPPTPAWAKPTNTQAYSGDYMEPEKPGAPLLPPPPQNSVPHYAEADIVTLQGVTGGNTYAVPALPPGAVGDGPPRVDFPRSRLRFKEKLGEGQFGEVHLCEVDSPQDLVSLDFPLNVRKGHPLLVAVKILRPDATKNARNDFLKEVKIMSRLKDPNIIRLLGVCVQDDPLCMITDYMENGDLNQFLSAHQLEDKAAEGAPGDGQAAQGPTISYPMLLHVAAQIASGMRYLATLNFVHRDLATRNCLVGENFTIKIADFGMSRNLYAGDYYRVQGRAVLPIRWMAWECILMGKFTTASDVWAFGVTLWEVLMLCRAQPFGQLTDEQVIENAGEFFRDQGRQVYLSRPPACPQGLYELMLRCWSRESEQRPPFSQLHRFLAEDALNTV
UniProt Q9HBI6: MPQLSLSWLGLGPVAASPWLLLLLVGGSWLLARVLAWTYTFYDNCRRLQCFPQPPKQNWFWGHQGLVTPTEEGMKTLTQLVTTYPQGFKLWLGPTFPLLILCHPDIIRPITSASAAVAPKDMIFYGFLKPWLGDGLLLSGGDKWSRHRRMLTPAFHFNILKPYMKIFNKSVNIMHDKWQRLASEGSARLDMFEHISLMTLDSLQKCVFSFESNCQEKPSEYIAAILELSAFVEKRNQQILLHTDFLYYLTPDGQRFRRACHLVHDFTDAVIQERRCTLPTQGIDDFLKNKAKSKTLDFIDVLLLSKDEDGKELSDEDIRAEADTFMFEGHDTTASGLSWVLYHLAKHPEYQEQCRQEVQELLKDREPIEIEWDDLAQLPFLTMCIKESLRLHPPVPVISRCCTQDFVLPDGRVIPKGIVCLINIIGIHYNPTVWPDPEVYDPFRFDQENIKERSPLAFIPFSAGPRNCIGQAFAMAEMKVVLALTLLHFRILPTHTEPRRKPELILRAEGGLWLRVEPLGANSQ
UniProt O43739: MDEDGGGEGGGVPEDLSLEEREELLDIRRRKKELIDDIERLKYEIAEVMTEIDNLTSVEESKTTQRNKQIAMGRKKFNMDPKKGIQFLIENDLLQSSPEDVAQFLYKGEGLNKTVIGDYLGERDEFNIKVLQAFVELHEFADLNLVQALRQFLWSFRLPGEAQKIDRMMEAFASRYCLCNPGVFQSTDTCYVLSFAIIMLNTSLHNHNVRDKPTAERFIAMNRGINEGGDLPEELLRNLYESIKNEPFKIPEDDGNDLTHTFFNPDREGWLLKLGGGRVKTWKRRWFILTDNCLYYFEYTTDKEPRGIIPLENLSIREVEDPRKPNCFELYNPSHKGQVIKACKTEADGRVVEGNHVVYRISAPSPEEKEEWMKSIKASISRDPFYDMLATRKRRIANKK
UniProt Q9NUU7: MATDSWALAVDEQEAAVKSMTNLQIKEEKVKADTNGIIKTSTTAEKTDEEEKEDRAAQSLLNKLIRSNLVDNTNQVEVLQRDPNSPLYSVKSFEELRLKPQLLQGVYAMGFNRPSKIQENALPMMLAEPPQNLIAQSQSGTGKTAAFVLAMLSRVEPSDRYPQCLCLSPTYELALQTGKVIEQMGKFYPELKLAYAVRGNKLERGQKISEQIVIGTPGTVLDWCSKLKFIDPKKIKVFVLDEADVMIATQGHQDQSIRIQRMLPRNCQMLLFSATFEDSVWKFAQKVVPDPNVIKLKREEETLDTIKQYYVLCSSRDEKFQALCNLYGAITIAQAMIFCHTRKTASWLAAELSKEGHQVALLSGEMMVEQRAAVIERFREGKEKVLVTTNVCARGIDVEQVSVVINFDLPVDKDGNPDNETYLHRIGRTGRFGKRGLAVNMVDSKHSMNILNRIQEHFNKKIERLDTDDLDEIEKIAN
UniProt Q8N8A6: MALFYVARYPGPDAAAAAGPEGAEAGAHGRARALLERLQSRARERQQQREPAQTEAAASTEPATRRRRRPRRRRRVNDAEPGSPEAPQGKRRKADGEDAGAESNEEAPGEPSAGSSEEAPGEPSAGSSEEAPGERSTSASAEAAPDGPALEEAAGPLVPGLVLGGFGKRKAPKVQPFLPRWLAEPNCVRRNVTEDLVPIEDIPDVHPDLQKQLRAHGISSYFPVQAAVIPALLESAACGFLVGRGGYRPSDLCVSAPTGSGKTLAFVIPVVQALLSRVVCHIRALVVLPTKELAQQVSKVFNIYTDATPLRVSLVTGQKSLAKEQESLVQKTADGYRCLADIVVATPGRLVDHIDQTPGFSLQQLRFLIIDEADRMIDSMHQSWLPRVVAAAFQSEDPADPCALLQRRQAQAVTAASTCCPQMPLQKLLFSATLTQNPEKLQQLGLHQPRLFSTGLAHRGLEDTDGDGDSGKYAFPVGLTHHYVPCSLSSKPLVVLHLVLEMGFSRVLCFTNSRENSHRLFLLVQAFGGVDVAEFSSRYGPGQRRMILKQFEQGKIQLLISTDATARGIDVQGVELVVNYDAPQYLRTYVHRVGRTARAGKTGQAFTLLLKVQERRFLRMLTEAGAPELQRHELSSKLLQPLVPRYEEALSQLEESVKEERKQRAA
UniProt Q96SD1, whole entry, looked up: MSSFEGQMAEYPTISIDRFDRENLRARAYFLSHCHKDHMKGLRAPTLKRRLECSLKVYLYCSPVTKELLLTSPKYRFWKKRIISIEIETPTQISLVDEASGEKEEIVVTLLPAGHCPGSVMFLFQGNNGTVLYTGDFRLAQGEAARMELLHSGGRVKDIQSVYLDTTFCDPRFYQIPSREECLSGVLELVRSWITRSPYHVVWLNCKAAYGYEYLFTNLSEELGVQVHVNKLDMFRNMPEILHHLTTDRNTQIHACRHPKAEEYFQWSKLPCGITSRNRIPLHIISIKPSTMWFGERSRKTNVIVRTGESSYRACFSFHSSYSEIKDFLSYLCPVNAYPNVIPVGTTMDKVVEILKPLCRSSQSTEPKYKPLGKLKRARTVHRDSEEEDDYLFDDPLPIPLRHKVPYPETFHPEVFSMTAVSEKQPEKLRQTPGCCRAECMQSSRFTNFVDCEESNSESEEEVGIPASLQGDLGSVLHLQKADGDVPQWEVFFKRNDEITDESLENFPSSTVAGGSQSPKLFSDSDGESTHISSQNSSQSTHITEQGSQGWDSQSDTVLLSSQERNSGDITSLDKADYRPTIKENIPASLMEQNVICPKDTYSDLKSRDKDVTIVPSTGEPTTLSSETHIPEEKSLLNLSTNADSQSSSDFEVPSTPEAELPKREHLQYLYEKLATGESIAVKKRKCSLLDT
UniProt Q05D60: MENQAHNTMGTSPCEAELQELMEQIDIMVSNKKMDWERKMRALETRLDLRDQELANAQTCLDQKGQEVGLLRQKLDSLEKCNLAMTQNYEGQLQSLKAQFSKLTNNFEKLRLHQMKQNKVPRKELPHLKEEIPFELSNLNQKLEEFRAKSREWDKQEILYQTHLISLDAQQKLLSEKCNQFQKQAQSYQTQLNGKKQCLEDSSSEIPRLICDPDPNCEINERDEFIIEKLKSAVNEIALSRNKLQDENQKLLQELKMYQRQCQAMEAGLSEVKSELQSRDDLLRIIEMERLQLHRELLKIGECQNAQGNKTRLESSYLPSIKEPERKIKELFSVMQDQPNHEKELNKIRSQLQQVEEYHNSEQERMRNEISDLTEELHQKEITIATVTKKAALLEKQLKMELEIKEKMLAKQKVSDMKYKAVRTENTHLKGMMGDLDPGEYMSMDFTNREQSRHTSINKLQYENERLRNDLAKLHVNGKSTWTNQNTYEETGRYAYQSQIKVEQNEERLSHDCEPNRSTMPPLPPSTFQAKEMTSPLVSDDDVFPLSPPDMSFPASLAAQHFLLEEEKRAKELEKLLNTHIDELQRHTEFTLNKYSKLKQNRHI
UniProt Q9H9R9: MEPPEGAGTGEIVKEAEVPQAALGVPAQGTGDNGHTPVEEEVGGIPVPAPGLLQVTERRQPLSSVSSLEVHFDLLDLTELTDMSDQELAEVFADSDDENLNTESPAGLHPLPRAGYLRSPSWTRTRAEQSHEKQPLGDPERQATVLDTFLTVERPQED
UniProt Q99418: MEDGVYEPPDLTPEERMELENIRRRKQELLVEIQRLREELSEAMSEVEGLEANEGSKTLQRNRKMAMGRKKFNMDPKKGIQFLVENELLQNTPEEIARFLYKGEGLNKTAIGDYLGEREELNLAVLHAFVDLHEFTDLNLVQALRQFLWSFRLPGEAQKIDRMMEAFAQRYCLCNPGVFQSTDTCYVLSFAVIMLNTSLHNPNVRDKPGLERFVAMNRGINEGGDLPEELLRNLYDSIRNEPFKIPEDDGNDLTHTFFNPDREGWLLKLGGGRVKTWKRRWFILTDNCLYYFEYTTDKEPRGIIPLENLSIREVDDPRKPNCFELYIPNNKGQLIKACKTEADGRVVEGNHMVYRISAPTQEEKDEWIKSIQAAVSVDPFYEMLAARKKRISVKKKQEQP
UniProt Q8WV16: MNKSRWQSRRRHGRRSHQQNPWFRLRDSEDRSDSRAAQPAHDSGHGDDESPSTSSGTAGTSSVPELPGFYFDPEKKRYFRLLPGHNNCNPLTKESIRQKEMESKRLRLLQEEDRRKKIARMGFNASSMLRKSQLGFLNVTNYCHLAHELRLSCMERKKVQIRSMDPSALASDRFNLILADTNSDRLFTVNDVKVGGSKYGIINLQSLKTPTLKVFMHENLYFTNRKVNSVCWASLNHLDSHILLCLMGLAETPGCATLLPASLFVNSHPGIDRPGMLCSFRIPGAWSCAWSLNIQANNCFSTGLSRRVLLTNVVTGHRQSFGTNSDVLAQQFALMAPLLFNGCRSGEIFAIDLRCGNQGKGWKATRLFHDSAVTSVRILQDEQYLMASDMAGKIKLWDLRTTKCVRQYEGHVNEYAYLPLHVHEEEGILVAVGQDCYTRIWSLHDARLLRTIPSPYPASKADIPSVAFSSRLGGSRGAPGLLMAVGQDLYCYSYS
UniProt Q9NUL7: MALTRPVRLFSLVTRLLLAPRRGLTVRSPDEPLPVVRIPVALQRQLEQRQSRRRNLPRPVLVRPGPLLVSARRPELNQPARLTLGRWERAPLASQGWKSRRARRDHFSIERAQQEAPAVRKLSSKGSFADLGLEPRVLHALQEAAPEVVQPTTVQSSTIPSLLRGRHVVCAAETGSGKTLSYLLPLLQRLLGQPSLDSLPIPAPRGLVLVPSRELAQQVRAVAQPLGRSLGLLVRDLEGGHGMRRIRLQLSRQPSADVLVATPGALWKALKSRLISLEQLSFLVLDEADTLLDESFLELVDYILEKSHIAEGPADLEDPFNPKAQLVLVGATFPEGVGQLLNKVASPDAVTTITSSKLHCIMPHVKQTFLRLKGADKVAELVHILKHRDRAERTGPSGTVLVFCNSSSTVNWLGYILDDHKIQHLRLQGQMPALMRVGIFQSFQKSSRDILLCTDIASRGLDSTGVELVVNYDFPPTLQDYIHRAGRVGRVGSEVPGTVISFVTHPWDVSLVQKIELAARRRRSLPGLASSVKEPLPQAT

Assays:
Assay in all cases: log2 fold change, soluble protein after heating vs DMSO (PISA); higher = thermal stabilisation; K562 lysate, 10 uM; active = over 0.2 and 3.5 SD of the protein, either way, in both replicates (recomputed)
[1] = compound: CCCS(=O)(=O)Nc1ccc(F)c(C(=O)c2c[nH]c3ncc(Cl)cc23)c1F
Outline: (§1)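 Pellets of K562 cells were dounce-homogenised in PBS pH 7.4 with 1 mM MgCl2, and the crude extract was held at 1 mg/mL protein for a 30 min treatment with 10 μM compound. Aliquots were heated for 3 min over 48°C-58°C and pooled before NP-40 was added to 0.5% at 4°C. The supernatant from 21,000xg for 90 min was quantified by TMTpro 16plex LC-MS/MS with channel sums equalised. Values are reported from duplicates as log-two fold change in thermal stability relative to solvent controls.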

volasertib = compound: CC[C@@H]1C(=O)N(C)c2cnc(Nc3ccc(C(=O)N[C@H]4CC[C@H](N5CCN(CC6CC6)CC5)CC4)cc3OC)nc2N1C(C)C [volasertib]
Outline: as §1

alisertib = compound: COc1cc(Nc2ncc3c(n2)-c2ccc(Cl)cc2C(c2c(F)cccc2OC)=NC3)ccc1C(=O)O [alisertib]
Outline: as §1

[2] = compound: COc1cc2nc(-c3cc(F)ccc3O)nc(N[C@@H]3CNC[C@H]3C(C)(C)O)c2cc1OC
Outline: as §1

gefitinib = compound: COc1cc2ncnc(Nc3ccc(F)c(Cl)c3)c2cc1OCCCN1CCOCC1 [gefitinib]
Outline: as §1

[3] = compound: CNC(=O)C1=CC=CC=C1NC2=NC(=NC=C2Cl)NC3=C(C=C(C=C3)N4CCOCC4)OC
Outline: as §1

barasertib = compound: CCN(CCCOc1ccc2c(Nc3cc(CC(=O)Nc4cccc(F)c4)[nH]n3)ncnc2c1)CCOP(=O)(O)O [barasertib]
Outline: as §1

[4] = compound: CC[C@@H]1C(=O)N(C)c2cnc(Nc3ccc(C(=O)NC4CCN(C)CC4)cc3OC)nc2N1C1CCCC1
Outline: as §1

[5] = compound: CCn1c(C(=O)N(C2CC2)C2CC2)cc2c3c(ncn3C)c(Nc3cc(C)n(C)n3)nc21
Outline: as §1

[6] = compound: CCn1cc(-c2ccnc3[nH]c(-c4cccc(CN(C)C)c4)cc23)c(-c2ccc(NC(=O)N(C)C)cc2)n1
Outline: as §1

[7] = compound: CN1CCC(CNc2ccc3ncc(-c4cccc(OC(F)(F)F)c4)n3n2)CC1
Outline: as §1

saracatinib = compound: CN1CCN(CCOc2cc(OC3CCOCC3)c3c(Nc4c(Cl)ccc5c4OCO5)ncnc3c2)CC1 [saracatinib]
Outline: as §1

sotrastaurin = compound: CN1CCN(c2nc(C3=C(c4c[nH]c5ccccc45)C(=O)NC3=O)c3ccccc3n2)CC1 [sotrastaurin]
Outline: as §1

alvocidib = compound: CN1CC[C@H](c2c(O)cc(O)c3c(=O)cc(-c4ccccc4Cl)oc23)[C@H](O)C1 [alvocidib]
Outline: as §1

Tubastatin A = compound: CN1CCc2c(c3ccccc3n2Cc2ccc(C(=O)NO)cc2)C1 [Tubastatin A]
Outline: as §1

[8] = compound: CNc1nc(-c2ccc3c(N)n[nH]c3c2)cc(N2C[C@@H](C(=O)NC3CCCCC3)CC[C@H]2C)n1
Outline: as §1

encorafenib = compound: COC(=O)N[C@@H](C)CNc1nccc(-c2cn(C(C)C)nc2-c2cc(Cl)cc(NS(C)(=O)=O)c2F)n1 [encorafenib]
Outline: as §1

[9] = compound: COC(=O)[C@H](CCSC)NC(=O)C1=C(C=C(C=C1)NC[C@H](CS)N)C2=CC=CC=C2
Outline: as §1

vemurafenib = compound: CCCS(=O)(=O)Nc1ccc(F)c(C(=O)c2c[nH]c3ncc(-c4ccc(Cl)cc4)cc23)c1F [vemurafenib]
Outline: as §1

defactinib = compound: CNC(=O)c1ccc(Nc2ncc(C(F)(F)F)c(NCc3nccnc3N(C)S(C)(=O)=O)n2)cc1 [defactinib]
Outline: as §1

Measured: log2 fold change

DCAF17 (UniProt Q5H9S7)
inactive: [1] 0.142 | volasertib -0.04 | alisertib -0.011 | [2] -0.238 | gefitinib -0.235

DAZAP2 (UniProt Q15038)
inactive: [3] -0.094

DDR1 isoform 5 (UniProt Q08345)
inactive: barasertib 0.169 | [4] 0.064 | [5] 0.013 | [6] 0.043 | saracatinib -0.142 | sotrastaurin -0.019 | alvocidib -0.034 | Tubastatin A 0.052 | [8] 0.147 | encorafenib 0.044 | [9] -0.094 | alisertib 0 | gefitinib 0.046
active: [7] -0.479

CYP4F11 (UniProt Q9HBI6)
inactive: [5] -0.267 | [6] -0.018 | [7] 0.271 | saracatinib 1.07 | alvocidib -0.099 | Tubastatin A -0.47 | [8] -0.176

2 neighbouring records out of the list so far, quoted:
DDR1 isoform 5 (UniProt Q08345)
inactive: barasertib 0.169 | [4] 0.064 | [5] 0.013 | [6] 0.043 | saracatinib -0.142 | sotrastaurin -0.019 | alvocidib -0.034 | Tubastatin A 0.052 | [8] 0.147 | encorafenib 0.044 | [9] -0.094 | alisertib 0 | gefitinib 0.046
active: [7] -0.479

CYP4F11 (UniProt Q9HBI6)
inactive: [5] -0.267 | [6] -0.018 | [7] 0.271 | saracatinib 1.07 | alvocidib -0.099 | Tubastatin A -0.47 | [8] -0.176

Later entries

CYTH3 (UniProt O43739)
inactive: [1] 0.016 | volasertib 0.012 | [5] -0.114 | [6] -0.026 | [7] -0.014 | alvocidib -0.043 | Tubastatin A -0.111 | [2] -0.06

DDX19A isoform 2 (UniProt Q9NUU7)
inactive: sotrastaurin -0.09

DDX51 (UniProt Q8N8A6)
inactive: [1] -0.019 | volasertib -0.013 | [5] -0.003 | [6] -0.106 | [7] -0.025 | saracatinib -0.024 | sotrastaurin 0.052 | alvocidib -0.06 | Tubastatin A -0.096 | [3] 0.097 | [8] -0.118 | alisertib -0.068 | [2] -0.032 | gefitinib 0.049

DCLRE1C (UniProt Q96SD1)
inactive: [1] -0.106 | volasertib -0.247 | [5] -0.024 | [6] -0.045 | [7] 0.079 | sotrastaurin -0.087 | alvocidib 0.153 | Tubastatin A -0.027 | [2] 0.256

DEUP1 (UniProt Q05D60)
inactive: [1] 0 | barasertib 0.16 | [4] 0.078 | volasertib 0.006 | [5] -0.581 | saracatinib 0.041 | sotrastaurin 0.215 | Tubastatin A 0.373 | [3] -0.046 | [8] 0.757 | encorafenib -0.059 | [9] -0.043 | alisertib -0.029 | [2] 0.247 | gefitinib -0.283

DCBLD2 isoform 2 (UniProt Q96PD2)
inactive: [1] 0.023 | volasertib -0.11 | [5] -0.076 | [6] 0.044 | [7] 0.019 | saracatinib -0.038 | alvocidib -0.092 | Tubastatin A 0.101 | [8] -0.157 | [2] -0.031

DCUN1D3 (UniProt Q8IWE4)
inactive: barasertib -0.02 | [4] -0.14 | [6] 0.217 | [7] -0.156 | saracatinib 0.034 | alvocidib -0.131 | [8] 0.288 | encorafenib 0.188 | [9] -0.146 | alisertib 0.081 | gefitinib 0.173

DBNDD1 isoform 3 (UniProt Q9H9R9)
inactive: [1] 0.056 | [4] -0.084 | volasertib -0.044 | [5] 0.002 | [6] 0.076 | [7] 0.081 | saracatinib 0.106 | sotrastaurin -0.029 | alvocidib -0.045 | Tubastatin A -0.037 | [3] 0.047 | [8] 0.02 | encorafenib -0.123 | [9] 0.081 | alisertib 0.056 | [2] -0.116 | gefitinib -0.224

CYTH2 (UniProt Q99418)
inactive: [1] -0.064 | barasertib 0.155 | [4] 0.028 | volasertib -0.017 | [5] -0.074 | [6] -0.044 | [7] -0.051 | saracatinib 0.047 | alvocidib -0.041 | Tubastatin A -0.054 | [3] -0.023 | [8] -0.043 | encorafenib 0.022 | [9] -0.153 | alisertib -0.03 | [2] 0.011 | gefitinib -0.007

DCAF4 (UniProt Q8WV16)
inactive: [1] -0.319 | barasertib 0.032 | [4] -0.101 | volasertib 0.207 | [6] -0.103 | [7] 0.108 | saracatinib 0.028 | sotrastaurin -0.023 | alvocidib 0.036 | [8] -0.029 | encorafenib 0.004 | [9] 0.011 | alisertib -0.245 | [2] 0.254 | gefitinib -0.104

DDX28 (UniProt Q9NUL7)
inactive: barasertib 0.109 | [5] 0.089 | [6] -0.085 | [7] -0.018 | saracatinib -0.045 | sotrastaurin 0.083 | alvocidib 0.066 | Tubastatin A -0.157 | [3] -0.087 | [8] -0.013 | alisertib -0.013 | gefitinib -0.011

DENND5A (UniProt Q6IQ26)
inactive: saracatinib 0.032 | sotrastaurin -0.05 | [8] -0.103

DCAF5 (UniProt Q96JK2)
inactive: vemurafenib -0.127 | saracatinib -0.144 | sotrastaurin 0.043 | defactinib 0.286 | [8] 0.064
